According to publication PMC8637128:
These are yes or no findings as the source states them, for the method shown. Binding seen in cells or lysates may run through a third protein. Some results given as binding are weak or reduced against the parent protein; the word gives no strength.

Protein sequences, listed by entry. Tags and fused reporters are not part of them.
UniProt Q61221: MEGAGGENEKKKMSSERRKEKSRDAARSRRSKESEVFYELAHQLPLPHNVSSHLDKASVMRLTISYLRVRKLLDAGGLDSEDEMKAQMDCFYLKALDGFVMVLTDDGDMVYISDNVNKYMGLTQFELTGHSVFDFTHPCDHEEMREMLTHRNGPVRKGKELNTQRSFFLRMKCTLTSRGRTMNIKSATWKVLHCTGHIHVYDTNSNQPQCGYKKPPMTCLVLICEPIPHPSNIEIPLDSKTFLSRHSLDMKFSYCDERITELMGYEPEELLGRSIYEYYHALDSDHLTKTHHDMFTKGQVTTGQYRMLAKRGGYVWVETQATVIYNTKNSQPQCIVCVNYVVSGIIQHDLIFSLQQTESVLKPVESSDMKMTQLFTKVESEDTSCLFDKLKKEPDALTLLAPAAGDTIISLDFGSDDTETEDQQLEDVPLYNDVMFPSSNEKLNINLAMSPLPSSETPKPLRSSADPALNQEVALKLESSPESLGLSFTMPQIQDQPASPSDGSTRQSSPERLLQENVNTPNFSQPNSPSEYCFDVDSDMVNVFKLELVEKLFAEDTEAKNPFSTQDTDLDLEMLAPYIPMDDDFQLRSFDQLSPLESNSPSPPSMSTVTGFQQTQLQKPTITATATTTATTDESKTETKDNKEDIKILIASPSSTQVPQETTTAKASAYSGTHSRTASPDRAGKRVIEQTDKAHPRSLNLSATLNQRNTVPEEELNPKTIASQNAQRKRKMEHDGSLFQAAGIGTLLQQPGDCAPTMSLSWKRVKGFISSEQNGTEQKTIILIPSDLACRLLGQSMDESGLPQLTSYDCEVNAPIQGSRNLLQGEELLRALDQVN
UniProt Q9WVC6: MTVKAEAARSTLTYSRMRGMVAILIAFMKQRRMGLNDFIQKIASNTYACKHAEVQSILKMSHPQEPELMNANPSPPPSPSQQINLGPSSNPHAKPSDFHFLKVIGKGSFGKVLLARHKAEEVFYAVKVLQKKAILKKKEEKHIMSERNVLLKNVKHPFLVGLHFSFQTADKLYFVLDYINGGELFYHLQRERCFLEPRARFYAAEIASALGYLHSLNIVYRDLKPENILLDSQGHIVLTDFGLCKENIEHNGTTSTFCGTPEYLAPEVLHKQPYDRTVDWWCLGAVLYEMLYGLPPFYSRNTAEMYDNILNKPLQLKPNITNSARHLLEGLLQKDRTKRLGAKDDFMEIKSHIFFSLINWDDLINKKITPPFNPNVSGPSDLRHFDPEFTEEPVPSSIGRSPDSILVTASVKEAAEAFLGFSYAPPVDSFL

Biological target: hypoxia inducible factor-1 alpha (UniProt Q61221)
Test: co-IP; co-immunoprecipitation of SGK1 and HIF-1α; the precipitated protein, the cells and the conditions are not told (section on HEI-OC1 cells)

## serum and glucocorticoid-induced protein kinase 1 (from UniProt Q9WVC6 1-431)
  binding: binds
